Values quoted from earlier work as cited in patent publication US10709678B2, “Methods of reducing risk of cardiovascular disease” (NEUROBO PHARMACEUTICALS, INC., priority 2012, dated 2020).
Where two headings read alike, the source gives them in different places. At least one compound was matched to its structure with a doubt left.

Experiments:
[1] = system: LDL-C; settings: cited from earlier work
[2] = system: LDL-C; settings: cited from earlier work; remark: listed apart in the source
[3] = system: LDL-C; settings: monotherapy, simvastatin 10 mg; cited from earlier work
[4] = 135 mg fenofibrate added to a moderate dose of statin

## CC(C)n1c(/C=C/C(O)CC(O)CC(=O)O)c(-c2ccc(F)cc2)c2ccccc21 (stereo not shown) [Fluvastatin]
[1]; 40 mg alone
  LDL-C lowering: 22.5%

## CC(C)(Oc1ccc(CCNC(=O)c2ccc(Cl)cc2)cc1)C(=O)O [bezafibrate]
[1]; 400 mg alone
  LDL-C lowering: 9.6%

## CC(C)OC(=O)C(C)(C)Oc1ccc(C(=O)c2ccc(Cl)cc2)cc1 [fenofibrate]
[2]; 135 mg fenofibrate added to a low dose of statin
  LDL-C levels: −33.1%
[2]; 135 mg fenofibrate added to a low dose of statin, not statistically significant
  LDL-C levels, difference from statin alone: 0.8%
[2]; [4]
  LDL-C levels: −34.6%
  LDL-C levels, difference from statin alone: 5.1%

## CCC(C)(C)C(=O)O[C@H]1C[C@@H](C)C=C2C=C[C@H](C)[C@H](CC[C@@H]3C[C@@H](O)CC(=O)O3)[C@H]21 [simvastatin]
[3]
  LDL-C lowered: 35%
